This is one part of the list. Repeats in this data set agree poorly, so a single value says little.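 Fusion between ACE2-bearing and full-length-spike-bearing U2OS cells was measured by imaging as the percentage of nuclei with both cell types' fluorescent markers. An inhibitory hit is a non-toxic compound whose fusion z-score is below -3, more than three standard deviations beneath the plate's DMSO wells.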
The compounds below were run on U2OS ACE2 x SARS-CoV-2 spike co-culture (assay: cell-cell fusion (fraction fused) z-score vs plate DMSO control; higher = more fusion). Conditions: 30 µM; 5 h; toxicity class: non-toxic, passed QC.

| SMILES | cell-cell fusion (z-score) |
| --- | --- |
| CC(CN1c2ccccc2Sc2ccccc21)N(C)C (stereo not drawn) [Promethazine] | inactive: 1.4 |
| COc1ccc(-c2coc3cc(O)ccc3c2=O)c(OC)c1 | inactive: 1.91 |
| CC(C)C(=O)Nc1ccc([N+](=O)[O-])c(C(F)(F)F)c1 [Flutamide (Eulexin)] | inactive: 2.04 |
| COc1cc([C@@H]2c3cc4c(cc3C(OC3O[C@@H]5COC(C)O[C@H]5[C@H](O)[C@H]3O)C3COC(=O)[C@@H]32)OCO4)cc(OC)c1O (stereo partly drawn) | inactive: 2.52 |
| O=C(O)COC(=O)Cc1ccccc1Nc1c(Cl)cccc1Cl | inactive: 1.46 |
| CCN(CCO)CCCOc1ccc2c(Nc3cc(CC(=O)Nc4cccc(F)c4)n[nH]3)ncnc2c1 [Barasertib (AZD1152-HQPA)] | inactive: 2.36 |
| O=c1oc2ccccc2c(O)c1Cc1c(O)c2ccccc2oc1=O [Dicumarol] | inactive: 1.39 |
| Cc1ccc([N+](=O)[O-])cc1S(=O)(=O)N(C)/N=C/c1cnc2ccc(Br)cn12.Cl | inactive: 1.39 |
| COc1ccc(C[C@@H](C)NC[C@H](O)c2ccc(O)c(NC=O)c2)cc1.COc1ccc(C[C@H](C)NC[C@@H](O)c2ccc(O)c(NC=O)c2)cc1.O=C(O)/C=C/C(=O)O [Formoterol Hemifumarate] | inactive: -0.748 |
| CCCN1CCC[C@@H](c2cccc(S(C)(=O)=O)c2)C1.Cl | inactive: 2.69 |
| Br.CN1CCC[C@@H]1Cc1c[nH]c2ccc(CCS(=O)(=O)c3ccccc3)cc12 [Eletriptan HBr] | inactive: 2.96 |
| O=C(O)[C@H](O)[C@@H](O)C(=O)O.c1cnc2cc3c(cc2n1)[C@@H]1CNC[C@H]3C1 [Varenicline] | inactive: 3.43 |
| Cc1ccc(=O)n(-c2ccccc2)c1 [Pirfenidone] | inactive: 3.73 |
| CC(C)=CCCC1(C)C=Cc2c(O)c3c(c(CC=C(C)C)c2O1)OC12C(=CCCC1C(C)(C)O[C@@]2(C/C=C(\C)C(=O)O)C(=O)O)C3=O (stereo partly drawn) | inactive: 2.52 |
| Cl.O=C(c1ccc(OCCN2CCCCC2)cc1)c1c(-c2ccc(O)cc2)sc2cc(O)ccc12 [Raloxifene hydrochloride] | inactive: 4.7 |
| CC[C@H](C)C(=O)O[C@H]1CCC=C2C=C[C@H](C)[C@H](CC[C@@H]3C[C@@H](O)CC(=O)O3)[C@H]21 [Mevastatin] | inactive: 1.48 |
| NC(=O)Cc1cccc(C(=O)c2ccccc2)c1N [Nepafenac] | inactive: 2.11 |
| Nc1ccn([C@H]2CC[C@@H](CO)O2)c(=O)n1 [Zalcitabine] | inactive: 2.91 |

Looked up above.
cell-cell fusion (z-score), COc1ccc(-c2coc3cc(O)ccc3c2=O)c(OC)c1 is entered as inactive: 1.91
cell-cell fusion (z-score), Br.CN1CCC[C@@H]1Cc1c[nH]c2ccc(CCS(=O)(=O)c3ccccc3)cc12 [Eletriptan HBr] is entered as inactive: 2.96

Reference: the supplement of paper PMC8104966
